PubChem BioAssay AID1224828, NIAID | 2016
Purpose: 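Regulators linking TLR4 signalling to p65 nuclear translocation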 (primary screen). Cell system: mouse RAW264.7 G9 macrophage reporter cells (GFP-p65, Tnf promoter-mCherry). Knock-down reagent: siRNA pool against mouse genes, 100 nM. Time to read-out: 2 days siRNA transfection, then 40 min LPS before fixation. Treatment: LPS (Salmonella minnesota R595) at 10 ng/ml. Measurement: 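Microscopy ratio of nuclear to perinuclear-ring GFP-p65 signal, scaled to the plate median; gene score is the average of two replicate robust z-scores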. Direction: p65 translocation robust z-score: higher = more nuclear NF-kappaB p65 after LPS than the plate median; nuclear/cytoplasmic p65 ratio: higher = more nuclear NF-kappaB p65. Rule for the call: 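Active if robust z is above 3.3 (negative regulators) or below -1.56, the Tlr4 control median (positive regulators); activity score 50 or more; control wells not called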. Meaning of the calls: active = hit (p65 shift raised or lowered); inactive = no clear change.
Here is a random part of about 17,000 deposited reagents. In the full data, 762 (4.5%) are marked active. 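Active calls include both raised and lowered p65 entry, mostly lowered; wells with fewer than 50 cells lack a z-score.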 The raw values are shown without normalisation. A number with no mark means an inactive call. A reagent listed more than once was tested more than once; the source does not tell the runs apart.

Target gene	p65 translocation robust z-score	nuclear/cytoplasmic p65 ratio, rep 1	nuclear/cytoplasmic p65 ratio, rep 2	low cell count flag
Tnfrsf4	-0.22	1.48	1.41	enough cells to score
Pag1	-1.29	1.48	1.31	enough cells to score
Timm8b	0.94	1.49	1.29	enough cells to score
Glyat	-0.35	1.61	1.51	enough cells to score
Adm	-0.36	1.61	1.52	enough cells to score
Crebl2	-1.35	1.41	1.41	enough cells to score
Or12e1	1.39	1.8	1.7	enough cells to score
Ccl12		2.83	1.5	fewer than 50 cells per well; well left out of scoring
Ccl12	-0.95	1.38	1.45	enough cells to score
Cstad	-0.82	1.49	1.43	enough cells to score
Zeb1	-0.32	1.5	1.43	enough cells to score
Slc8a2		1.7	1.22	fewer than 50 cells per well; well left out of scoring
Haspin	0.13	1.83	1.31	enough cells to score
Hoxa10	-0.17	1.41	1.36	enough cells to score
Or51b4	-1.46	1.31	1.1	enough cells to score
Scrn1	0.07	1.41	1.24	enough cells to score
Ppp1ca	0.08	1.56	1.37	enough cells to score
Rab19	1.27	1.54	1.2	enough cells to score
Mgat4b	-2.12 (active)	1.45	1.18	enough cells to score
Chmp7	-1.53	1.11	1.26	enough cells to score
Or12d13	0.04	1.41	1.7	enough cells to score
Ehd2		1.37	1.26	fewer than 50 cells per well; well left out of scoring
Miso1	0.26	1.55	1.35	enough cells to score
Celf5		1.49	1.71	fewer than 50 cells per well; well left out of scoring
Pcdh9	0.24	1.48	1.44	enough cells to score

Already shown: an excerpt of the list.
Target gene	p65 translocation robust z-score	nuclear/cytoplasmic p65 ratio, rep 1	nuclear/cytoplasmic p65 ratio, rep 2	low cell count flag
Or12e1	1.39	1.8	1.7	enough cells to score
Ccl12		2.83	1.5	fewer than 50 cells per well; well left out of scoring
Ccl12	-0.95	1.38	1.45	enough cells to score
Cstad	-0.82	1.49	1.43	enough cells to score
Zeb1	-0.32	1.5	1.43	enough cells to score
Slc8a2		1.7	1.22	fewer than 50 cells per well; well left out of scoring
Haspin	0.13	1.83	1.31	enough cells to score

The listing continues:
Target gene	p65 translocation robust z-score	nuclear/cytoplasmic p65 ratio, rep 1	nuclear/cytoplasmic p65 ratio, rep 2	low cell count flag
Nup160	-1.12	1.63	1.29	enough cells to score
V1ra8	1.4	1.56	1.39	enough cells to score
Npffr2	-0.74	1.42	1.45	enough cells to score
Patl2	1.69	1.46	1.33	enough cells to score
Zfp952	-0.82	1.63	1.39	enough cells to score
Wfdc1	-1.17	1.47	1.32	enough cells to score
Or8g26	1.17	1.6	1.38	enough cells to score
Manea		1.12	1.47	fewer than 50 cells per well; well left out of scoring
Rnf125	-0.7	1.35	1.12	enough cells to score
Npl	0.92	1.9	1.62	enough cells to score
Prss12		1.64	1.29	fewer than 50 cells per well; well left out of scoring
Abo	1.22	1.74	1.92	enough cells to score
Stag1	1.92	1.68	1.11	enough cells to score
D830050J10Rik	-1.47	1.33	1.51	enough cells to score
Jmjd4	-0.25	1.47	1.57	enough cells to score
